Some of the results follow. Further columns of the screen follow, without active or inactive calls. The list favours compounds with an active or inconclusive main result. Words in brackets tell the shape of the fitted curve; partial curves, single points and poor fits give uncertain potencies.
Experiment: qHTS Assay for Lipid Storage Modulators in Drosophila S3 Cells;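 on cell number change: cells counted by Cell Tracker Red CMTPX staining in the red channel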
Settings: BODIPY lipid droplet fluorescence, 18-24 h; for cell number change: measured here: cell count max response, cells fed with added oleic acid
Method in brief: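 Laser-scanning cytometry quantifies lipid droplet accumulation (500–530 nm total intensity; droplet/cell object ratio) in oleic acid-fed (400 uM added) Drosophila S3 cells treated with a concentration series. 20 uM Triacsin C defined 100% inhibition.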

[1] = measured here: lipid fluorescence (Fed channel) AC50, cells fed with added oleic acid
[2] = measured here: cell number channel AC50, cells fed with added oleic acid

Compound: CCc1ccc(NC(=O)C2CCCN(S(=O)(=O)c3cccs3)C2)cc1 (stereo not drawn)
- cell number change: -15.9%
- AC50 [1]: 6.51 µM [rising, single point]

Compound: CCOc1ccc(C(=O)NCC(=O)OCC(=O)Nc2cccc(S(=O)(=O)N3CCCC3)c2)cc1
- cell number change: -6.47%
- AC50 [1]: 0.517 µM [falling, single point]

Compound: COc1ccc(-c2cc(C(=O)N3CCN(c4ccccc4F)CC3)c3ccccc3n2)c(OC)c1
- AC50 [1]: 7.31 µM [falling, partial curve]

Compound: O=C(Cc1ccc(S(=O)(=O)N2CCCCC2)s1)Nc1cccc2ccccc12
- cell number change: 0.161%

Compound: COc1cccc(-n2cc(C(=O)NC(C)C)c3ccccc3c2=O)c1
- cell number change: 7.04%

Compound: COc1ccc(-n2nc3c(c2NC(=O)CCl)CSC3)cc1
- cell number change: -22.2%
- AC50 [1]: 8.2 µM [falling, partial curve]

Compound: COc1cccc(CNC(=O)CCCc2nnc3n(C)c(=O)c4sccc4n23)c1
- cell number change: 15.8%
- AC50 [2]: 0.58 µM [falling, full curve]
- AC50 [1]: 0.366 µM [falling, partial curve, poor fit]

Compound: Cc1nn(-c2ccc(C(=O)O)cc2)c(C)c1Cl
- cell number change: 8.86%
- AC50 [1]: 1.03 µM [falling, full curve]

Compound: COC(=O)c1[nH]c2cccc(Cl)c2c1NC(=O)CN(C)C1CCCCC1
- cell number change: -14.2%

Compound: COCc1cc(=O)n2[nH]cc(-c3ccsc3)c2n1
- cell number change: 24.3%
- AC50 [1]: 20.6 µM [rising, single point]

Compound: CCOC(=O)/C(=C/c1c[nH]c2ccccc12)NC(C)=O
- cell number change: -0.575%

Compound: COc1ccc(N2CCN(C3CCCN(S(=O)(=O)c4ccc(C)cc4C)C3)CC2)cc1 (stereo not drawn)
- cell number change: -23.9%
- AC50 [1]: 4.61 µM [falling, full curve]

Compound: COc1ccc(NC(=O)CNC(=O)Cc2ccccc2)cc1
- cell number change: 11.7%
- AC50 [1]: 11.6 µM [falling, single point]

Compound: Cc1cc(C)cc(N(CC(=O)N2CCCCCC2)S(C)(=O)=O)c1
- cell number change: -9.84%
- AC50 [1]: 0.82 µM [rising, single point]

Compound: O=C(CCNC(=O)c1ccccc1Cl)Nc1cc(C(F)(F)F)ccc1N1CCCC1
- cell number change: 35.1%
- AC50 [1]: 35.5 µM [falling, single point]

Compound: CC1(C)CC(N2CCN(c3ccccc3)CC2)=CC(=[N+]2CCCC2)C1
- cell number change: -41.1%
- AC50 [2]: 18.4 µM [falling, partial curve, poor fit]
- AC50 [1]: 23.1 µM [falling, single point]

Compound: CCOC(=O)c1c(S(=O)(=O)NCCCc2ccco2)c(C)n(C)c1C
- AC50 [1]: 10.3 µM [rising, partial curve]

Compound: C=C1CCN([C@H](C(=O)NCc2ccc(OC)cc2)C(C)C)S(=O)(=O)c2ccccc21
- cell number change: 21%
- AC50 [1]: 1.84 µM [rising, full curve, poor fit]

Compound: C=C(C)CNC(=S)N/N=C(\C)c1ccc(Cl)s1
- cell number change: -50.4%
- AC50 [2]: 20.6 µM [falling, partial curve]
- AC50 [1]: 16.4 µM [falling, partial curve]

Compound: CC(=O)Nc1ccc2oc(-c3cc(F)c(F)cc3Cl)nc2c1
- cell number change: -5.61%
- AC50 [1]: 0.651 µM [rising, single point]

Compound: Cc1cc(C(=O)COc2ccccc2C#N)c(C)n1C1CC1
- cell number change: 3.62%
- AC50 [1]: 0.092 µM [rising, full curve, poor fit]

Compound: CCC(C)c1ccc(NC(=O)CC(C)=O)cc1 (stereo not drawn)
- cell number change: 1.75%
- AC50 [1]: 18.4 µM [falling, partial curve]

Compound: CC(C)CCOc1ccc(CO[C@@H]2[C@H]3OC(C)(C)O[C@H]3O[C@@H]2C(O)CO)cc1 (stereo partly drawn)
- cell number change: -9.72%

Compound: CCn1c(=S)sc2c(=O)n(CC(=O)Nc3ccc(Cl)cc3)c(C)nc21
- cell number change: -0.612%

Compound: CN(CC(=O)Nc1cccc(F)c1)C(=O)CC1CCCCC1
- cell number change: 16.5%
- AC50 [2]: 4.11 µM [falling, single point]

Compound: CCCOC(=O)Nc1sc2c(c1C(=O)OCC)CCC2
- cell number change: -29.2%
- AC50 [1]: 1.64 µM [rising, partial curve, poor fit]

Compound: O=C(CSc1ncccn1)Nc1ccc2c(c1)CCC2
- cell number change: 21.9%
- AC50 [1]: 18.4 µM [rising, single point]

Compound: CCOc1ccc(CN(C)CC(=O)Nc2ccc([N+](=O)[O-])cc2Cl)cc1
- cell number change: 1.51%
- AC50 [1]: 2.59 µM [rising, single point]

Compound: CCn1c(SCC(=O)Nc2ccc(C(C)=O)cc2)nc2nc3c(cc2c1=O)COC(C)(C)C3
- cell number change: 44%
- AC50 [2]: 29.1 µM [rising, single point]
- AC50 [1]: 29.1 µM [rising, single point]

Compound: CCCOc1ccc(CSc2n[nH]c(C)n2)cc1
- cell number change: 22.7%
- AC50 [1]: 1.84 µM [rising, full curve, poor fit]

Compound: Cc1ccc(NC(=O)CSc2nc3nc(C)c(Br)cc3[nH]2)cc1F
- cell number change: 1.79%
- AC50 [1]: 18.4 µM [falling, single point]

Compound: O=C(CCS(=O)(=O)c1ccccc1)Nc1ccc(S(=O)(=O)Nc2ncccn2)cc1
- cell number change: 0.901%

Compound: COc1ccc(/C=C/c2nnc(NC(=O)COc3ccc(C)cc3)s2)cc1
- cell number change: -0.15%
- AC50 [1]: 8.2 µM [rising, partial curve]

Compound: CCC(C)NC(=O)c1cc(C)no1 (stereo not drawn)
- cell number change: -63%
- AC50 [2]: 29.1 µM [falling, single point]

Compound: COc1ccc(Cl)cc1NCCC(O)c1ccc(F)cc1 (stereo not drawn)
- cell number change: -26.9%
- AC50 [1]: 32.6 µM [falling, single point]

Compound: O=C(CN1CCOCC1)N1CCCc2c1c(=O)oc1ccc(OCc3ccccc3)cc21
- AC50 [1]: 3.26 µM [rising, partial curve]

Compound: Oc1ccc(/C=N/n2cnn(Cc3ccccc3Cl)c2=S)c(O)c1
- cell number change: -9.9%
- AC50 [1]: 0.0366 µM [falling, full curve, poor fit]

Compound: CC(=O)NCCNc1nc2c(-c3cccc(C)c3)nnn2c2ccccc12
- cell number change: -22%
- AC50 [1]: 25.9 µM [falling, single point]

Compound: CCCCn1c(N)c(NCCC(C)C)c(=O)[nH]c1=O
- cell number change: 23.9%
- AC50 [1]: 18.4 µM [rising, single point]

Compound: CCc1cc(=O)oc2cc(C)cc(OC(C)C(=O)NCC(O)c3ccccc3)c12 (stereo not drawn)
- cell number change: 24.5%
- AC50 [1]: 4.11 µM [rising, single point]

Compound: CC12CCC(C(=O)N(NC(=O)c3cccnc3)C1=O)C2(C)C (stereo not drawn)
- cell number change: -2.22%
- AC50 [1]: 1.16 µM [falling, full curve, poor fit]

Compound: COc1ccc(NS(=O)(=O)c2cc(NC(=O)c3cccc(OCc4c(C)noc4C)c3)ccc2OC)cc1
- cell number change: -1.31%
- AC50 [1]: 3.26 µM [rising, full curve]

Compound: CN(CC(=O)Nc1ccc(S(=O)(=O)N2CCOCC2)cc1)Cc1ccc(F)cc1
- cell number change: 3.25%
- AC50 [1]: 3.26 µM [falling, single point]

Compound: Fc1ccc(NCc2cccnc2)cc1F
- cell number change: 3.69%

Compound: CCCCOc1ccc(C(=O)N/C(=C/C=C/c2ccccc2)C(=O)N2CCOCC2)cc1
- cell number change: -54%
- AC50 [2]: 29.1 µM [falling, single point]
- AC50 [1]: 2.06 µM [rising, partial curve, poor fit]

Compound: CCNC(=O)C(=O)Nc1ccc2c(c1)N(S(=O)(=O)c1cccs1)CCC2
- cell number change: 56.9%
- AC50 [2]: 7.31 µM [rising, partial curve]

Compound: c1ccc2c(c1)CCN(c1ncnc3c1[nH]c1ccccc13)C2
- cell number change: -186%

Compound: Cc1cc(C)n(-c2nc3sc4c(c3c3nnc(SCC(N)=O)n23)CC(C)(C)OC4)n1
- AC50 [1]: 20.6 µM [falling, single point]

Compound: CCOc1ccc(N(C(C)C(=O)NCc2ccco2)S(C)(=O)=O)cc1 (stereo not drawn)
- cell number change: 76.1%
- AC50 [2]: 18.4 µM [rising, partial curve]

Compound: Cn1c(-c2ccc(Cl)nc2)nc2cc(Cl)ccc21
- cell number change: -19.8%
- AC50 [1]: 1.46 µM [falling, partial curve]

Compound: COc1cccc(NC(=O)Cc2cccs2)c1
- cell number change: -3.52%
- AC50 [1]: 0.00517 µM [falling, full curve, poor fit]

Compound: CCN1C(=O)c2cccc3c(S(=O)(=O)Nc4ccc(OC)cc4OC)ccc1c23
- cell number change: -29%
- AC50 [2]: 2.91 µM [falling, full curve, poor fit]
- AC50 [1]: 5.8 µM [falling, full curve]

Compound: O=C(CSc1nc2ccccc2c(=O)n1CC1CCCO1)NCc1ccccc1 (stereo not drawn)
- cell number change: -34.3%
- AC50 [1]: 29.1 µM [falling, partial curve]

Compound: Cn1c(CCC(=O)O)nc2cc(S(=O)(=O)N3CCCCC3)ccc21
- cell number change: -8.41%

Compound: O=C(COC(=O)c1ccc(Cl)c(S(=O)(=O)N2CCCCCC2)c1)Nc1ccccc1
- cell number change: 1.63%
- AC50 [1]: 29.1 µM [falling, single point]

Compound: CCOC(=O)c1ccccc1NC(=O)c1cccnc1
- cell number change: -36.5%
- AC50 [2]: 9.2 µM [falling, partial curve, poor fit]

Compound: COc1cccc(NC(=O)CN(C)CC(=O)c2c(C)[nH]c3ccccc23)c1
- cell number change: 7.66%
- AC50 [1]: 29.1 µM [falling, single point]

Compound: C=CCN(C(=O)c1csnn1)C(C(=O)NCc1ccccc1)c1cccs1 (stereo not drawn)
- cell number change: -32.4%
- AC50 [2]: 14.6 µM [falling, partial curve, poor fit]
- AC50 [1]: 6.51 µM [rising, single point]

Compound: CC1(C)Cc2c(cnn2-c2cccc(F)c2)C(NC(=O)CSc2ccncc2)C1 (stereo not drawn)
- cell number change: 29.1%
- AC50 [1]: 29.1 µM [rising, partial curve, poor fit]

Compound: COC(=O)c1[nH]c2ccccc2c1NC(=O)CN1CC(C)OC(C)C1 (stereo not drawn)
- cell number change: -11.2%
- AC50 [1]: 23.1 µM [rising, single point]

Compound: CCCCCN1C=CC=C/C1=C\C=C(C#N)C#N
- cell number change: 2.25%
- AC50 [1]: 25.9 µM [falling, single point]

Compound: Cn1c(=O)c2c(nc(N3CCCC3)n2CC(O)CO)n(C)c1=O (stereo not drawn)
- cell number change: -15.2%
- AC50 [2]: 0.0517 µM [falling, full curve, poor fit]
- AC50 [1]: 25.9 µM [falling, partial curve]

Source: PubChem BioAssay AID2685 (National Center for Advancing Translational Sciences (NCATS), 2010)
